Test results reported in publication PMC9126983, “Structural insights into the mechanism of archaellar rotational switching” (Nature Communications, 2022).
Results are given in words; binding and its absence hold for the method and conditions named. Binding can be weak; no strength is given.

Biological target: GST-MmCheFCTD (Methanococcus maripaludis)
Experiment: ITC; as a4, in the absence of NaF and BeF2; both purified

B1: Methanococcus maripaludis CheY (without BeF3-) (protein, UniProt Q6LYQ5 1-123)
chain: MASIVKTMIVDDSAFMRNILKRILSTTNKYVVIGEAANGADAIKMAEELQPDLISMDIVMPETDGITATKAIKEKTPEIKIVMCTSVDQEQKMIDAVNAGADGYIVKPFQAPKILEQFNKLFP
- binding: binds weakly
